Experimental data: PubChem BioAssay AID686979 (National Center for Advancing Translational Sciences (NCATS), 2013)
The entries are a selection whose mix differs from that of the whole data set. Records with an inconclusive call do not appear. Activity calls are given as the source filed them. Calls follow the shape of the dose curve; as a rule, active = well fitted inhibition curve with a large enough effect; inconclusive = small, poorly fitted or top-dose-only effect; inactive = flat fitted curve, though single readings scatter.

Assay: qHTS for Inhibitors of human tyrosyl-DNA phosphodiesterase 1 (TDP1): qHTS in cells in presence of CPT; also: nearly all actives have a fitted effect of over 55% in size
Conditions: chicken DT40 Tdp1-/-;hTDP1 cells + 20 nM CPT, ATP luminescence, 48 h
From the text: Human tyrosyl-DNA phosphodiesterase 1 (TDP1) is a novel repair gene, and we propose to use it as a new target for anticancer drug development. TDP1 is not an essential protein, but under treatment with topoisomerase I poison (camptothecin: CPT), TDP1 works as a critical factor for cell survival. To directly identify novel TDP1 inhibitors active in a cellular environment, we have knocked-out the Tdp1 gene in chicken DT40 cells (Tdp1-/-) and generated a complemented counterpart cells that contains a stable transfection of the human TDP1 gene (Tdp1-/-;hTDP1 cells). For the primary screen, Tdp1-/-;hTDP1 cells will be exposed to small molecules in the presence or absence of CPT, and their growth kinetics will be evaluated after 48 hours by measuring ATP activity. […] The hit compounds will then be evaluated in the presence or absence of CPT using Tdp1-/- cells. […] In tertiary assays, biochemical gel-based assays will be used to assess whether the hit compounds specifically target TDP1. To this end, we have screened this cell line against the MLSMR in two primary screens. In one screen we add CPT and in the other we screen in the absence of CPT; this AID represents the screen where CPT was present. NIH Chemical Genomics Center [NCGC] NIH Molecular Libraries Probe Centers Network [MLPCN] MLPCN Grant: MH095538 Assay Submitter (PI): Yves Pommier, NCI
DT40-hTDP1 cells with 20 nM Camptothecin (add 20 microL of 1 mM CPT stock in 1 L of cell culture medium) were dispensed at 400 cells/5microL/well in tissue culture treated 1536-well white wall/solid bottom assay plates (Greiner Bio-One North America, NC, U.S.A.) using a Multidrop Combi 8 channel dispenser (Thermo Fisher, Waltham, MA, USA). 23 nL compounds and controls were transferred using the pin tool (Kalypsys, San Diego, CA, USA) to the assay plates. The assay plates were then incubated at 37 masculineC for a minimum 48 hr. Three microL of Cell Titer Glo solution was added to the plates and incubated at RT in dark for 30 min. Luminescence was read using ViewLux (Perkin Elmer) with 1 sec exposure slow speed, high gain and 2x binning.
Potency is read from the fitted curve at half-maximal effect.

Compound	Potency
COc1c(O)cc2c(c1OC)-c1ccc(SC)c(=O)cc1C(NC(C)=O)CC2 (stereo not drawn)	active: 16.4 nM
COc1cc2c(c(OC)c1OC)-c1ccc(SC)c(=O)cc1C(NC(C)=O)CC2 (stereo not drawn)	active: 18.4 nM
COc1c(O)cc2c(c1OC)-c1ccc(OC)c(=O)cc1C(NC(C)=O)CC2 (stereo not drawn)	active: 920 nM
